# From US20240140978
# Where cells or extracts were used, other partners may take part. For some assays here: Negatives hold for the conditions tested. For at least one entry, the source does not settle the construct or the ends of the probe. For some assays here: Where a protein sequence is shown, tags need not be part of it.
# How the values were obtained:
# Assay in all cases: pull-down
# [1] = biological target: T1, Fibrillarin (FBL) (Homo sapiens) (UniProt P22087); conditions: Ramos cells, affinity purification and MS; may be indirect; protein in an extract; label: biotin; single-stranded DNA
# T1 sequence (looked up, limits assumed): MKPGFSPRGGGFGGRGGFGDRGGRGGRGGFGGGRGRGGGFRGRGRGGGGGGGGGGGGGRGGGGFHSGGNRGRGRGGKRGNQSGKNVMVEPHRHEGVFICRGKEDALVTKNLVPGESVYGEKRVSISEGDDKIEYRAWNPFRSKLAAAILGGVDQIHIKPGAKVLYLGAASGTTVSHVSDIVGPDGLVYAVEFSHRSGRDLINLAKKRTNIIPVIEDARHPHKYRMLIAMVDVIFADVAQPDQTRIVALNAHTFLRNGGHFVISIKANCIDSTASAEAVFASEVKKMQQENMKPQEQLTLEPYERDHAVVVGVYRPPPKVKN
# [2] = biological target: H2AFJ (Histone H2A.J) (Homo sapiens) (UniProt Q9BTM1); conditions: Ramos cells, affinity purification and MS; may be indirect; protein in an extract; label: biotin; single-stranded DNA
# [3] = biological target: T2, DDX21 (Nucleolar RNA helicase 2) (Homo sapiens) (UniProt Q9NR30); conditions: Ramos cells, affinity purification and MS; may be indirect; protein in an extract; label: biotin; single-stranded DNA
# T2 sequence (looked up, limits assumed): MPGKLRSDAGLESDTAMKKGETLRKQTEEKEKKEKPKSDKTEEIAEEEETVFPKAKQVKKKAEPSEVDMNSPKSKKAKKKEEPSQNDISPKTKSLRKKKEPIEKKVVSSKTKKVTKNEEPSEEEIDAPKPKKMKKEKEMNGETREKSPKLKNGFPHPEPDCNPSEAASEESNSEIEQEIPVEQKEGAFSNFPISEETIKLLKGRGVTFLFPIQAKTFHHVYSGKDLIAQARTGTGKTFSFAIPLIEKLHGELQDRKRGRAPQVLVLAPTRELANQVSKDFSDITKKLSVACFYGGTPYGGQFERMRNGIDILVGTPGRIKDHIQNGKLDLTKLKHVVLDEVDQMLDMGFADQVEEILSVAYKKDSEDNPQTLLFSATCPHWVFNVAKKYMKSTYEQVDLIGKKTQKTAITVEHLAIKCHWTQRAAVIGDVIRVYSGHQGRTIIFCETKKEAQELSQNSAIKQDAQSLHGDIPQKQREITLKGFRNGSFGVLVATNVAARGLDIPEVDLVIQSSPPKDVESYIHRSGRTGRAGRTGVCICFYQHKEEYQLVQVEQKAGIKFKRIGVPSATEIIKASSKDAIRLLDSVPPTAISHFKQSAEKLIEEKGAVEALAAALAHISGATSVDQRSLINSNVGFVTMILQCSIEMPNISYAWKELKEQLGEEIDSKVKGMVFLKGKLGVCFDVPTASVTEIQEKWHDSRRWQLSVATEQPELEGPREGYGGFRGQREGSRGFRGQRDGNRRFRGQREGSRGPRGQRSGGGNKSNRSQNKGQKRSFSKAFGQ
# SFPQ (Homo sapiens) = SFPQ (Homo sapiens) (UniProt P23246); conditions: Ramos cells, affinity purification and MS; may be indirect; protein in an extract; label: biotin; single-stranded DNA
# [4] = biological target: Nucleolin (NCL) (Homo sapiens) (UniProt P19338); conditions: protein in an extract, label: biotin, single-stranded DNA
# [5] = biological target: HIST1H1D (Histone H1.3) (Homo sapiens) (UniProt P16402); conditions: Ramos cells, affinity purification and MS; may be indirect; protein in an extract; label: biotin; single-stranded DNA
# SSBP1 (Homo sapiens) = biological target: T3, SSBP1 (Homo sapiens) (UniProt Q04837); conditions: Ramos cells, affinity purification and MS; may be indirect; protein in an extract; label: biotin; single-stranded DNA
# T3 sequence (looked up, limits assumed): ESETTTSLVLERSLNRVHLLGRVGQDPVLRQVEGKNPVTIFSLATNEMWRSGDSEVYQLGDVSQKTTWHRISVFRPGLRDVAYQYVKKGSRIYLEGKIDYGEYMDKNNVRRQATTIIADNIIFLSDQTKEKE
# [6] = biological target: HIST1H1B (Histone H1.5) (Homo sapiens) (UniProt P16401); conditions: Ramos cells, affinity purification and MS; may be indirect; protein in an extract; label: biotin; single-stranded DNA
# [7] = biological target: Histone H4 (HIST1H4A) (Homo sapiens) (UniProt P62805); conditions: Ramos cells, affinity purification and MS; may be indirect; protein in an extract; label: biotin; single-stranded DNA
# RPL12 (Homo sapiens) = RPL12 (Homo sapiens) (UniProt P30050); conditions: Ramos cells, affinity purification and MS; may be indirect; protein in an extract; label: biotin; single-stranded DNA
# PARP1 (Homo sapiens) = PARP1 (Homo sapiens) (UniProt P09874); conditions: Ramos cells, affinity purification and MS; may be part of RNP complex; protein in an extract; label: biotin; single-stranded DNA
# NONO (Homo sapiens) = NONO (Homo sapiens) (UniProt Q15233); conditions: Ramos cells, affinity purification and MS; may be indirect; protein in an extract; label: biotin; single-stranded DNA
# [8] = tested on: Complement C1q (subunits A/B/C) (Homo sapiens); conditions: protein in an extract, single-stranded DNA
# [9] = listed as anti-C1q oligonucleotide, values not in text
sequence,measurement,setting,value
CTAACCCCGGGTGTGGTGGGTGGGCAGGGGGGTTAG [10.36 (C10.36)],binding result,[1],binds
same,binding result,[2],binds
same,binding result,[3],binds
same,binding result,SFPQ (Homo sapiens),binds
same,binding result,"[4]; Ramos cells, affinity purification and MS, enriched Ramos over Jurkat",binds
same,binding result,[5],binds
same,binding result,SSBP1 (Homo sapiens),binds
same,binding result,[6],binds
same,binding result,[7],binds
same,binding result,RPL12 (Homo sapiens),binds
same,binding result,PARP1 (Homo sapiens),binds
same,binding result,NONO (Homo sapiens),binds
CTAGCATGACTGCAGTACGTAACCCAATTCACATACACTCTCACCCCCACTAAACACTGTCTCTTATACACATCTGACGCTGCCGACGA [83S-B11 Full],binding result,[8]; [9],binds
CTAGCATGACTGCAGTACGTACTATAGAACAATCCACCGCTTTAAATCAACTATCTTACTGTCTCTTATACACATCTGACGCTGCCGACGA [83s_B1 Full],binding result,"[8]; anti-C1q oligonucleotide, targets identified by mass spectrometry from plasma",binds
CTAGCATGACTGCAGTACGTGATTTTAAAACCCTTGCACCTGATTGTGCCAATCCACTGTCTCTTATACACATCTGACGCTGCCGACGA [83s-B6 Full],binding result,[8]; [9],binds
CTAGCATGACTGCAGTACGTTACCCCTGACAATCCTCGCGCCGAGGCCTCCATCCTGACTGTCTCTTATACACATCTGACGCTGCCGACGA [83S-B4 Full],binding result,[8]; [9],binds
GGTGGTGGTGGTTGTGGTGGTGGTGG [AS1411],binding result,"[4]; no detectable binding to Ramos or Jurkat cells in affinity purification, immobilized aptamer",no binding
